The text below walks through data of patent US20190169241A1 (BOARD OF TRUSTEES OF THE UNIVERSITY OF ILLINOIS, published 2019).

Amino acid sequences for entries named in this document (tags omitted). Residues count along the entry.
UniProt P35968, residues 20-1356: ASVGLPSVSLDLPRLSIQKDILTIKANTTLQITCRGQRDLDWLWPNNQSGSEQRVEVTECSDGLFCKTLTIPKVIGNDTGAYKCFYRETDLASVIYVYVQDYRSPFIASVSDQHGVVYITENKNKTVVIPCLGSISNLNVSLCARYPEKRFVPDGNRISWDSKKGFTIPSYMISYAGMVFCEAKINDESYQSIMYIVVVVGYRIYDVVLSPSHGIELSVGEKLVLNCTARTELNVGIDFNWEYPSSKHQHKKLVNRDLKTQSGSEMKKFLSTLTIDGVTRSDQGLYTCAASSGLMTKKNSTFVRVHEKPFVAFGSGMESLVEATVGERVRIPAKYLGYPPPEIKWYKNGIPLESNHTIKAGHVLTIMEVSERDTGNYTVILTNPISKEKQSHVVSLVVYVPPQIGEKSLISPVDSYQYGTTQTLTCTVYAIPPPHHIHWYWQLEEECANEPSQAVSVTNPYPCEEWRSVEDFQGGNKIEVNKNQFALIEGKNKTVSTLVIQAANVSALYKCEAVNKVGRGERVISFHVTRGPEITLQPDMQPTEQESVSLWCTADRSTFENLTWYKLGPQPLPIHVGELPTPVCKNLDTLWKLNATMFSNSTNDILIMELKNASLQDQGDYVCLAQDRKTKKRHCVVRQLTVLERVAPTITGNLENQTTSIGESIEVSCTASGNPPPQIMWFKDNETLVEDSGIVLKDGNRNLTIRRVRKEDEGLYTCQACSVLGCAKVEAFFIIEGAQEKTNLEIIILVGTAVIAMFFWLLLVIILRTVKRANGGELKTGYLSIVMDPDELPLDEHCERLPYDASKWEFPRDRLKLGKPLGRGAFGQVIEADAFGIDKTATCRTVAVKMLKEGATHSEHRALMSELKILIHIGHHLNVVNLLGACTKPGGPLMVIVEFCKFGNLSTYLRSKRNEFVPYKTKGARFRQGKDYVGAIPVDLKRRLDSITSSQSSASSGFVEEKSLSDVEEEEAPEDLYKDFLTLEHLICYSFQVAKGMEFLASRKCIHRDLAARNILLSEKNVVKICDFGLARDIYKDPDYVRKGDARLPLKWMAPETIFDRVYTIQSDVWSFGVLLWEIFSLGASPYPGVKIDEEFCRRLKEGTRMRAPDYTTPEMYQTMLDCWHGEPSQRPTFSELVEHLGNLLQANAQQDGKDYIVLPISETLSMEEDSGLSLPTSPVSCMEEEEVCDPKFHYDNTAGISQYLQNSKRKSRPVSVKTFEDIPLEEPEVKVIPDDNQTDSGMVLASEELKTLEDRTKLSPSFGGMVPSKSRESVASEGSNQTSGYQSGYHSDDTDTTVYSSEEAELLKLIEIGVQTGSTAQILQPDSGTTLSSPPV

The target in assay [1] is vascular endothelial growth factor receptor 2 (VEGFR2), endogenous, from HUVEC lysates (human) (UniProt P35968). The assay can be described thus: pull-down with endogenous VEGFR2 from HUVEC lysates.
Assay [2] shares this target. As to the kind of experiment: pull-down (told again with the network formation assay).

No constants are given. Whether binding was seen depends on the method and setting. Binding seen in cells or lysates may run through a third protein. Some results given as binding are weak or reduced against the parent protein; the word gives no strength.

With SRGTPVDERLFLIVRVTVQLSHP (peptide, not shown: small tags and cut ends) [DUF2C5 (residues 1238-1260 of KIF13B), recombinant truncated mutant from bacteria], the binding entry in assay [1] and in assay [2] was “binds” throughout.
Turning to RGTPVDERLFLIVRVTVQLS [DUF2C5c], the binding result in assay [1] was “binds”.
Still for that read-out and setting: in the case of RGTPVDERLFLIVRVTVQLSHP [DUF2C5a] it was “binds”; in that of RGTPVDERLFLIVRVTVQ [DUF2C5d], “binds”; in that of GTPVDERLFLIVRVTVQLSHP [DUF2C5b], “binds”.
